Results: US8486950B2, “Janus kinase inhibitor compounds and methods” (F. Hoffmann-La Roche AG, priority 2009, dated 2013)
Some of these results come from one statement about several compounds together.

Target: T1, TYK2 kinase domain (Homo sapiens, UniProt P29597)
T1 construct: made in house; host or cells: SF9 insect cells (recombinant baculovirus)
T1 sequence (P29597 873-1187): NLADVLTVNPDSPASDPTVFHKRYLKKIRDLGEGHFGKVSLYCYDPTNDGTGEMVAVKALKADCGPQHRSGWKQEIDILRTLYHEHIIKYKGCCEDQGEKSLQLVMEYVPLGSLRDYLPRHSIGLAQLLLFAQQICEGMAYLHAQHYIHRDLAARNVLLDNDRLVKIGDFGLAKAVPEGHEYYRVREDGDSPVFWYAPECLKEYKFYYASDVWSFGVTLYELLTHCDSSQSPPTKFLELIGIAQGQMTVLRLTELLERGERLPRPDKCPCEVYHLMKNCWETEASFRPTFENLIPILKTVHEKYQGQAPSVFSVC
Assay: TYK2 inhibition assay (Caliper LabChip, isolated kinase domain)
Type: biochemical
Settings: 25 uM ATP, values given as 'about'

SMILES	Ki
Cc1cnc(Nc2cc(NC(=O)c3c(Cl)cccc3Cl)ccn2)o1 [Example 591, 2,6-dichloro-N-(2-(5-methyloxazol-2-ylamino)pyridin-4-yl)benzamide]	< 3.5 µM
O=C(Nc1ccnc(Nc2cc(C3CC3)nc(NCCO)n2)c1)c1c(Cl)cccc1Cl [Example 592, 2,6-dichloro-N-(2-(6-cyclopropyl-2-(2-hydroxyethylamino)-pyrimidin-4-ylamino)pyridin-4-yl)benzamide]	< 3.5 µM
CN(CCO)c1nc(Nc2cc(NC(=O)c3c(Cl)cccc3Cl)ccn2)cc(C2CC2)n1 [Example 593, 2,6-dichloro-N-(2-(6-cyclopropyl-2-((2-hydroxyethyl)(methyl)-amino)pyrimidin-4-ylamino)pyridin-4-yl)benzamide]	< 3.5 µM
O=C(Nc1ccnc(Nc2cc(C3CC3)nc(N(CCO)CCO)n2)c1)c1c(Cl)cccc1Cl [Example 594]	< 3.5 µM
O=C(Nc1ccnc(Nc2cc(C3CC3)nc(N3CCCC3)n2)c1)c1c(Cl)cccc1Cl [Example 595, 2,6-dichloro-N-(2-(6-cyclopropyl-2-(pyrrolidin-1-yl)pyrimidin-4-ylamino)pyridin-4-yl)benzamide]	< 3.5 µM
O=C(Nc1ccnc(Nc2cc(C3CC3)nc(N3CC(O)C3)n2)c1)c1c(Cl)cccc1Cl [Example 596, 2,6-dichloro-N-(2-(6-cyclopropyl-2-(3-hydroxyazetidin-1-yl)pyrimidin-4-ylamino)pyridin-4-yl)benzamide]	< 3.5 µM
O=C(Nc1ccnc(Nc2cc(C(F)(F)F)[nH]n2)c1)c1c(Cl)cccc1Cl [Example 597, 2,6-dichloro-N-(2-(5-(trifluoromethyl)-1H-pyrazol-3-ylamino)pyridin-4-yl)benzamide]	< 3.5 µM
CC1(C)COC(Nc2cc(NC(=O)c3c(Cl)cccc3Cl)ccn2)=N1 [Example 598, 2,6-dichloro-N-(2-(4,4-dimethyl-4,5-dihydrooxazol-2-ylamino)pyridin-4-yl)benzamide]	< 3.5 µM
O=C(Nc1ccnc(Nc2cc(C3CC3)nc(N3CCNCC3)n2)c1)c1c(Cl)cccc1Cl [Example 599, 2,6-dichloro-N-(2-(6-cyclopropyl-2-(piperazin-1-yl)pyrimidin-4-ylamino)pyridin-4-yl)benzamide]	< 3.5 µM
O=C(Nc1ccnc(Nc2cc(C3CC3)nc(N3CCN(CCO)CC3)n2)c1)c1c(Cl)cccc1Cl [Example 600, 2,6-dichloro-N-(2-(6-cyclopropyl-2-(4-(2-hydroxyethyl)piperazin-1-yl)pyrimidin-4-ylamino)pyridin-4-yl)benzamide]	< 3.5 µM
Nc1nc(Nc2cc(NC(=O)c3c(Cl)cccc3Cl)ccn2)cc(C2CC2)n1 [Example 601, N-(2-(2-amino-6-cyclopropylpyrimidin-4-ylamino)pyridin-4-yl)-2,6-dichlorobenzamide]	< 3.5 µM
Cc1cc(Nc2cc(NC(=O)c3c(Cl)cccc3Cl)ccn2)nc(C(F)(F)F)n1 [Example 602, 2,6-dichloro-N-(2-(6-methyl-2-(trifluoromethyl)pyrimidin-4-ylamino)pyridin-4-yl)benzamide]	< 3.5 µM
Cc1cc(Nc2cc(NC(=O)c3c(Cl)cccc3Cl)ccn2)nc(CO)n1 [Example 603, 2,6-dichloro-N-(2-(2-(hydroxymethyl)-6-methylpyrimidin-4-ylamino)pyridin-4-yl)benzamide]	< 3.5 µM
Cc1nc(Nc2cc(NC(=O)c3c(Cl)cccc3Cl)ccn2)cc(=O)[nH]1 [Example 604, 2,6-dichloro-N-(2-(2-methyl-6-oxo-1,6-dihydropyrimidin-4-ylamino)pyridin-4-yl)benzamide]	< 3.5 µM

The remaining lines, values ahead:

Ki	SMILES
< 3.5 µM	O=C(Nc1ccnc(Nc2cn[nH]c2)c1)c1c(Cl)cccc1Cl [Example 605, N-(2-(1H-pyrazol-4-ylamino)pyridin-4-yl)-2,6-dichlorobenzamide]
< 3.5 µM	Cc1nc(CO)cc(Nc2cc(NC(=O)c3c(Cl)cccc3Cl)ccn2)n1 [Example 606, 2,6-dichloro-N-(2-(6-(hydroxymethyl)-2-methylpyrimidin-4-ylamino)pyridin-4-yl)benzamide]
< 3.5 µM	CNC(=O)[C@H]1C[C@H]1C(=O)Nc1cc(NC(=O)c2c(Cl)cccc2Cl)ccn1 [Example 611, (1R,2S)-N1-(4-(2,6-dichlorobenzamido)-pyridin-2-yl)-N2-methylcyclopropane-1,2-dicarboxamide]
< 3.5 µM	CNC(=O)[C@@H]1C[C@@H]1C(=O)Nc1cc(NC(=O)c2c(Cl)cccc2Cl)ccn1 [Example 612, (1S,2R)-N1-(4-(2,6-dichlorobenzamido)-pyridin-2-yl)-N2-methylcyclopropane-1,2-dicarboxamide]
< 3.5 µM	CNC(=O)[C@H]1C[C@@H]1C(=O)Nc1cc(NC(=O)c2c(Cl)cccc2Cl)ccn1 [Example 617, (1S,2S)-N1-(4-(2,6-dichlorobenzamido)-pyridin-2-yl)-N2-methylcyclopropane-1,2-dicarboxamide]
< 3.5 µM	CNC(=O)[C@@H]1C[C@H]1C(=O)Nc1cc(NC(=O)c2c(Cl)cccc2Cl)ccn1 [Example 618, (1R,2R)-N1-(4-(2,6-dichlorobenzamido)-pyridin-2-yl)-N2-methylcyclopropane-1,2-dicarboxamide]
